# Results of single-concentration screens

Sequences of proteins named here, by UniProt entry; tags and fusion partners are left off. Residues count along the entry.
UniProt A4I591, 1-473: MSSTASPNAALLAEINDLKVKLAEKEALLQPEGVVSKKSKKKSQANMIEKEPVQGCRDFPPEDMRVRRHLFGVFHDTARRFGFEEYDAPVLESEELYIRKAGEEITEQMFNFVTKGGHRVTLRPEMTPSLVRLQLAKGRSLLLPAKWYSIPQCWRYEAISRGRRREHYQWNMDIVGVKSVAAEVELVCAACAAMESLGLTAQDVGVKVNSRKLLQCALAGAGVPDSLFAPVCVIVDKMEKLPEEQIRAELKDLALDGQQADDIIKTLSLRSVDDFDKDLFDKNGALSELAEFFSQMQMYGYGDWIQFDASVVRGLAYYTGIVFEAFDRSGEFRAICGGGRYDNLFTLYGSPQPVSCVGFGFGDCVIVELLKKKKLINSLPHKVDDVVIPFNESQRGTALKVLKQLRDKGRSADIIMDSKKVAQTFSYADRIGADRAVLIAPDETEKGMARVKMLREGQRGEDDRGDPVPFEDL
UniProt P9WPC5, whole entry: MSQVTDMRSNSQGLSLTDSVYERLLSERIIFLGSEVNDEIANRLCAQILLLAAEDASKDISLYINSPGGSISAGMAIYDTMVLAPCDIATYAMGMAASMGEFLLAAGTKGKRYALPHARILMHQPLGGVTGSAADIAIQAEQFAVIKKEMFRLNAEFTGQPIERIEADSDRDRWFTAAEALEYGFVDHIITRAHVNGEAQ
UniProt P9WPC3, whole entry partner: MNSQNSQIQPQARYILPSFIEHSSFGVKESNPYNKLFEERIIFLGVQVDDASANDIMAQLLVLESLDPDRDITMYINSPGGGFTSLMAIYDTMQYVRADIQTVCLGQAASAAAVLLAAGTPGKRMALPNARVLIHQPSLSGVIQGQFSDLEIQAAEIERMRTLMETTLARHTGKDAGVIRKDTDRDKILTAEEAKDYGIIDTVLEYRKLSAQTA
UniProt Q4DA54, 1-478: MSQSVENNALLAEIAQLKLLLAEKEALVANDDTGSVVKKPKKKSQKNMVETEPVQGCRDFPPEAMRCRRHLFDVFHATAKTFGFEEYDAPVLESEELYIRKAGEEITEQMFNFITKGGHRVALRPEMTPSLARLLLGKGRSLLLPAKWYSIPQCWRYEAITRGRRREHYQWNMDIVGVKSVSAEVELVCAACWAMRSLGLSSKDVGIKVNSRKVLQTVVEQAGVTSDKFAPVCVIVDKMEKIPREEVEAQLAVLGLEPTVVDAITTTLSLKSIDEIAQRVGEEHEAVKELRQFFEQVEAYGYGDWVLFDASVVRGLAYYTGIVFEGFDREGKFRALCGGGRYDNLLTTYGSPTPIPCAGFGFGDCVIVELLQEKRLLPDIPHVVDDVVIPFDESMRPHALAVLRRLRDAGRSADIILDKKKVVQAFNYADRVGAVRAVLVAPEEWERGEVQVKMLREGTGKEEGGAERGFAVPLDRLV

A: 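Assay of Toxoplasma gondii numbers, read through their beta-galactosidase reporter with a colour substrate. Tested at 10 µM. The record gives no direction; the compounds picked for IC50 retests had high values, so higher reads as fewer parasites. Size under these conditions: about 67,000 compounds, about 260 of them at 50% or above in at least one test.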
B: 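Whole-parasite assay of Trypanosoma brucei over 72 hours; the read-out is not stated. Concentration: 30 µM. Direction is inferred from retests: higher values go with stronger inhibition. Values scatter widely below zero; nearly all retest evidence comes from the higher of the two concentrations used. Size under these conditions: about 64,000 compounds, about 940 of them at 50% or above in at least one test.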
C: 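Enzyme assay of histidyl-tRNA synthetase; the read-out is not stated. Target: Histidine-tRNA ligase, Leishmania infantum (UniProt A4I591). Tested at 30 µM. Higher reads as stronger inhibition (inferred: compounds with an IC50 in retests scored well above the rest). The assay is labelled LdHisRS but filed under L. infantum. About 69,000 compounds were tested under these conditions; 0.6% (about 410) showed 50% or more at least once.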
D: 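Protease assay of ClpP1P2, read by the AMC dye that it sets free. Target: ClpP1P2, Mycobacterium tuberculosis (UniProt P9WPC5 and UniProt P9WPC3). Concentration: 50 µM. Higher reads as stronger inhibition, judged from the few compounds that gave an IC50. Most other retested compounds had strongly negative values. Size under these conditions: about 69,000 compounds, about 10 of them at 50% or above in at least one test.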
E: 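Enzyme assay of histidyl-tRNA synthetase; the read-out is not stated. Target: Histidine-tRNA ligase, Trypanosoma cruzi CL Brener (UniProt Q4DA54). Tested at 30 µM. Higher reads as stronger inhibition (inferred: compounds with an IC50 in retests scored well above the rest). Of about 69,000 compounds tested this way, about 31 (0.045%) reached 50% or more in at least one test.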

Each number is a percent effect as filed. The record does not define 0% and 100%; most values in the screen are far below 50% and negative numbers occur (in some assays of this library far below -100). The compounds are a random part of those screened. A dash means the value is not listed here; it may have been measured.

- Fc1ccc(CN2Cc3nccn3CC(CN3CCOCC3)C2)cc1.O=C(O)C(F)(F)F.O=C(O)C(F)(F)F (stereo not shown) : A: -11.24%; B: 39.42%
- O=C(N1CCCC1)N1CCC2(CC1)COCCN(Cc1cccnc1)C2.O=C(O)C(F)(F)F.O=C(O)C(F)(F)F : A: -18.06%; B: -15.84%
- O=C(O)C(F)(F)F.[H][C@@]12CCN(Cc3ccccc3OC)C[C@]1([H])O[C@H](C(=O)N1CCCC1)C2 : A: -4.102%; B: -13.82%
- CC(C)c1nnc2n1CCN(C(C)c1nnc(-c3cccs3)o1)C2 (stereo not shown) : A: -10.85%; B: -68.29%; C: 2.564%; D: -2.836%; E: 5.556%
- CNC(=O)CNC(=O)c1ccc(-c2scnc2C)nc1 : A: 9.48%; B: 4.777%; C: 13.42%; D: -56.9%; E: 4.286%
- COCC(=O)NC(c1ccc(Cl)cc1)c1noc(C)n1 (stereo not shown) : A: -1.282%; B: -15.38%; C: 13.79%; D: -1.915%; E: -0.5236%
- CC1(C)Cc2ccccc2-c2nc(NCCCO)[nH]c(=O)c21 : A: 0.4174%; B: -33.53%; C: 15.79%; D: -25.57%; E: 3.659%
- CC(=O)Nc1nc(C(=O)N2CCCC2Cn2cc(C)cn2)cs1 (stereo not shown) : A: -8.328%; B: 1.768%; C: 8%; D: -10.71%; E: 1.887%
- O=C(Nc1cccnc1-n1cncn1)C1CCC1 : A: 0.9766%; B: -50.97%; C: 19.78%; D: 5.846%; E: 15.06%
- Cc1oc(C(=O)O)cc1S(=O)(=O)Nc1ccc(Cl)c(F)c1 : A: 0.9529%; B: 4.88%; C: 0%; D: -6.119%; E: 1.527%
- c1cc(N2CCC3(COCc4cnc(NCC5CC5)nc43)C2)ncn1 (stereo not shown) : A: -21.23%; B: -35.87%; C: 1.613%; D: -11.98%; E: 0.8772%
- CCC[C@@H]1CN(C(=O)c2c(F)ccc(OC)c2F)C[C@H]1C(=O)O : A: -31.17%; B: -27.21%; C: 4.478%; D: -7.241%; E: 1.064%
- CCc1cc2cc(OC)c(OC)cc2nc1SCCN1CCCCC1.Cl : A: 8.204%
- O=C(NC1CCC(C(=O)N2CCSCC2)CC1)N1CCC1 (stereo not shown) : A: -4.478%; B: -17.36%; C: 26.88%; D: 2.787%; E: 6.548%
- CC(Nc1cccc(Oc2ccc(C#N)cn2)c1)C(=O)NC1CC1 (stereo not shown) : A: 1.431%; B: -132.5%; C: 2.74%; D: -8.147%; E: -3.175%
- COc1cc(-c2ccc(F)c3c2OC(CN)C3)cc(OC)c1OC (stereo not shown) : A: 3.121%; B: -23.91%; C: 10%; D: 3.994%; E: 4.255%
- COCCOCC(=O)Nc1cccc(CN(C)C(C)=O)c1 : A: 5.81%; B: -23.44%; C: 11.11%; D: 12.77%; E: 5.806%
- COc1ccccc1CC(=O)NS(=O)(=O)c1ccc(C#N)cc1 : A: -10.65%; C: 3.846%; D: 2.237%; E: 2.857%
- Cc1cc(OCc2cccc(F)c2)ccc1NC(=O)C(C)NC(N)=O (stereo not shown) : A: -11.97%; B: -12.9%; C: -5.983%; D: 0.7518%; E: 0%
- O=C(CNCCn1cccn1)NCC1(c2ccccc2)CCC1 : A: 2.874%; C: 11.5%; D: -30.24%; E: 7.289%
- [H][C@@]12CCN(S(=O)(=O)c3cccs3)[C@]1([H])CCC(=O)N2C : A: -10.65%; B: -17.33%
- COc1ccc(CN2C[C@@H]3OCC(=O)N(Cc4nccn4C)[C@@H]3C2)cc1 : C: 9.459%; D: -4.795%; E: 1.087%
- Cc1ccc2c(n1)N(CCn1cccn1)CCN(C1CCOCC1)C2 : C: 19.44%; D: -2.947%; E: 6.542%
- COCCCNC(=O)CN(C)C(=O)c1ccc(-n2cccc2)cc1O : A: -12.01%; C: 14.68%; D: -24.23%; E: 7.289%
- Cc1cc(CN2CCN(CCOc3cccc(C#N)c3)CC2)no1 : A: -2.699%; B: -27.02%; C: 28.79%; D: 14.43%; E: 4.545%
- Cc1ccc(CN2CCc3[nH]nc(C(=O)N(C)C)c3C2)o1 : C: 19.42%; D: 2.43%; E: 11.65%

2 of the entries, repeated:

SMILES	A	B	C	D	E
CCc1cc2cc(OC)c(OC)cc2nc1SCCN1CCCCC1.Cl	8.204	-	-	-	-
COc1ccc(CN2C[C@@H]3OCC(=O)N(Cc4nccn4C)[C@@H]3C2)cc1	-	-	9.459	-4.795	1.087

Data taken from ChEMBL document CHEMBL3988442, “University of Dundee, Small-Polar-MMV Screening Library” (2021).